{"source": "patent US20040248867A1", "about": "“Novel anti-inflammatory 17α-heterocyclic-esters of 17βcarbothioate androstane derivatives” (priority 2001, published 2004)", "target": "T1, glucocorticoid receptor (Homo sapiens, UniProt P04150)", "T1 construct": "A549 cells stably transfected with a reporter gene; endogenous in cells; host or cells: A549 cells (stably transfected with NF-κB/ELAM-sPAP reporter only)", "T1 sequence (P04150 1-777)": "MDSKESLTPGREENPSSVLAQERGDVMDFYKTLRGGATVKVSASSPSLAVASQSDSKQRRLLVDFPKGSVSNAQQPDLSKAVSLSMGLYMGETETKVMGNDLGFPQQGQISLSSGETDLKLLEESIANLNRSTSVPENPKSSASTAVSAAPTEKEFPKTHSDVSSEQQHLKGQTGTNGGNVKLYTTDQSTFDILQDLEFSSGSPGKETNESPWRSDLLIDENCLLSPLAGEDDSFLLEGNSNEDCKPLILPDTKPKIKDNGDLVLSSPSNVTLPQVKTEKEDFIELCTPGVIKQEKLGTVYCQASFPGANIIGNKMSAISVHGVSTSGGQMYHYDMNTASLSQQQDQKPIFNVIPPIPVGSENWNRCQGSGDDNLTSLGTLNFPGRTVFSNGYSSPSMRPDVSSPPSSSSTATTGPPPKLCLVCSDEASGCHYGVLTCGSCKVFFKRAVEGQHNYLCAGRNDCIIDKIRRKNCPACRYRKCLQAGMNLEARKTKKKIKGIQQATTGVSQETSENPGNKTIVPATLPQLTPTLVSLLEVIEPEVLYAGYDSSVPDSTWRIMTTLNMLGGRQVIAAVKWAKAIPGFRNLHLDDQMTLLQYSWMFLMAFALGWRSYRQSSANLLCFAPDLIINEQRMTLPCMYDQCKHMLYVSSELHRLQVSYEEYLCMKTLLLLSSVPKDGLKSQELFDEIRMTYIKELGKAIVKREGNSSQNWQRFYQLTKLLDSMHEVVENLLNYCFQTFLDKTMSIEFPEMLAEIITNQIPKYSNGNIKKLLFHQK", "experiment": "functional in vitro assay of glucocorticoid agonist activity (A549 NF-κB/ELAM-sPAP reporter, TNF stimulated)", "assay_type": "cell-based", "conditions": "A549 cells with NF-κB reporter (sPAP); compound 1 hour at 37° C., then TNF 10 ng/ml for 16 hours", "note": "Some of these results come from one statement about several compounds together."}
{"smiles": "CC1CC2C3CC(F)C4=CC(=O)C=CC4(C)C3(F)C(O)CC2(C)C1(OC(=O)C1CCCO1)C(=O)SCF", "note": "(stereo not drawn) [Example 1, 6α,9α-Difluoro-11β-hydroxy-16α-methyl-3-oxo-17α-(tetrahydrofuran-2S-ylcarbonyl)oxy-androsta rosta-1,4-diene-17β-carbothioic acid S-fluoromethyl ester]", "values": [{"measurement": "EC50", "result": "< 1", "unit": "nM"}]}
{"smiles": "CC1CCOC1C(=O)OC1(C(=O)SCF)C(C)CC2C3CC(F)C4=CC(=O)C=CC4(C)C3(F)C(O)CC21C", "note": "(stereo not drawn) [Example 10, 6α,9α-Difluoro-11β-hydroxy-16α-methyl-3-oxo-17α-[(2RS,3SR)-3-methyl-tetrahydrofuran-2-ylcarbonyl]oxy-androsta-1,4-diene-17β-carbothioic acid S-fluoromethyl ester]", "values": [{"measurement": "EC50", "result": "< 1", "unit": "nM"}]}
{"smiles": "CC1CC2C3CC(F)C4=CC(=O)C=CC4(C)C3(F)C(O)CC2(C)C1(OC(=O)C1SCCS1)C(=O)SCF", "note": "(stereo not drawn) [Example 4, 6α,9α-Difluoro-17α-(1,3-dithiolan-2-ylcarbonyl)oxy-11β-hydroxy-16α-methyl-3-oxo-androsta-1,4-diene-17β-carbothioic acid S-fluoromethyl ester]", "values": [{"measurement": "EC50", "result": "< 1", "unit": "nM"}]}
{"smiles": "CC1CC2C3CC(F)C4=CC(=O)C=CC4(C)C3(F)C(O)CC2(C)C1(OC(=O)C1CSC1)C(=O)SCF", "note": "(stereo not drawn) [Example 6, 6α,9α-Difluoro-11β-hydroxy-16α-methyl-3-oxo-17α-(thietan-3-ylcarbonyl)oxy-androsta-1,4-diene-17β-carbothioic acid S-fluoromethyl ester]", "values": [{"measurement": "EC50", "result": "< 1", "unit": "nM"}]}
{"smiles": "CC1CC2C3CC(F)C4=CC(=O)C=CC4(C)C3(F)C(O)CC2(C)C1(OC(=O)C1CCOC1)C(=O)SCF", "note": "(stereo not drawn) [Example 3, 6α,9α-Difluoro-11β-hydroxy-16α-methyl-3-oxo-17α-(tetrahydrofuran-3-ylcarbonyl)oxy-androsta-1,4-diene-17β-carbothioic acid S-fluoromethyl ester]", "values": [{"measurement": "EC50", "result": "< 1", "unit": "nM"}]}
{"smiles": "CC1CC2C3CC(F)C4=CC(=O)C=CC4(C)C3(F)C(O)CC2(C)C1(OC(=O)C1(C)CCCS1)C(=O)SCF", "note": "(stereo not drawn) [Example 13, 6α,9α-Difluoro-11β-hydroxy-16α-methyl-3-oxo-17α-(2-methyl-tetrahydrothiophen-2-ylcarbonyl)oxy-androsta-1,4-diene-17β-carbothioic acid S-fluoromethyl ester]", "values": [{"measurement": "EC50", "result": "< 1", "unit": "nM"}]}
{"smiles": "CCC1(C(=O)OC2(C(=O)SCF)C(C)CC3C4CC(F)C5=CC(=O)C=CC5(C)C4(F)C(O)CC32C)CCCO1", "note": "(stereo not drawn) [Example 15, 6α,9α-Difluoro-11β-hydroxy-16α-methyl-3-oxo-17α-(2-ethyl-tetrahydrofuran-2-ylcarbonyl)oxy-androsta-1,4-diene-17β-carbothioic acid S-fluoromethyl ester]", "values": [{"measurement": "EC50", "result": "< 1", "unit": "nM"}]}
{"smiles": "CC1CC2C3CC(F)C4=CC(=O)C=CC4(C)C3(F)C(O)CC2(C)C1(OC(=O)C1CCOCC1)C(=O)SCF", "note": "(stereo not drawn) [Example 17, 6α,9α-Difluoro-11β-hydroxy-16α-methyl-3-oxo-17α-(tetrahydro-4H-Pyran-4-ylcarbonyl)oxy-androsta-1,4-diene-17β-carbothioic acid S-fluoromethyl ester]", "values": [{"measurement": "EC50", "result": "< 1", "unit": "nM"}]}
{"smiles": "CC1CC2C3CC(F)C4=CC(=O)C=CC4(C)C3(F)C(O)CC2(C)C1(OC(=O)C1(C)CCOC1)C(=O)SCF", "note": "(stereo not drawn) [Example 14, 6α,9α-Difluoro-11β-hydroxy-16α-methyl-3-oxo-17α-(3-methyltetrahydrofuran-3-ylcarbonyl)oxy-androsta-1,4-diene-17β-carbothioic acid S-fluoromethyl ester]", "values": [{"measurement": "EC50", "result": "< 1", "unit": "nM"}]}
{"smiles": "CC1CC2C3CC(F)C4=CC(=O)C=CC4(C)C3(F)C(O)CC2(C)C1(OC(=O)C1SCCCS1)C(=O)SCF", "note": "(stereo not drawn) [Example 16, 6α,9α-Difluoro-17α-(1,3-dithian-2-ylcarbonyl)oxy-11β-hydroxy-16α-methyl-3oxo-androsta-1,4-diene-17β-carbothioic acid S-fluoromethyl ester]", "values": [{"measurement": "EC50", "result": "< 1", "unit": "nM"}]}
{"smiles": "CC1CC2C3CC(F)C4=CC(=O)C=CC4(C)C3(F)C(O)CC2(C)C1(OC(=O)C1CCCS1)C(=O)SCF", "note": "(stereo not drawn) [Example 7, 6α,9α-Difluoro-11β-hydroxy-16α-methyl-3-oxo-17α-(tetrahydrothiophen-2-ylcarbonyl)oxy-androsta-1,4-diene-17β-carbothioic acid S-fluoromethyl ester]", "values": [{"measurement": "EC50", "result": "< 1", "unit": "nM"}]}
{"smiles": "CC1CC2C3CC(F)C4=CC(=O)C=CC4(C)C3(F)C(O)CC2(C)C1(OC(=O)C1(C)CCCO1)C(=O)SCF", "note": "(stereo not drawn) [Example 8, 6α,9α-Difluoro-11β-hydroxy-16α-methyl-3-oxo-17-(2-methyl-tetrahydrofuran-2-ylcarbonyl)oxy-androsta-1,4-diene-17β-carbothioic acid S-fluoromethyl ester]", "values": [{"measurement": "EC50", "result": "< 1", "unit": "nM"}]}
{"smiles": "CC1CC2C3CC(F)C4=CC(=O)C=CC4(C)C3(F)C(O)CC2(C)C1(OC(=O)C1CCCN1C)C(=O)SCF", "note": "[Example 5, 6α,9α-Difluoro-11β-hydroxy-16α-methyl-17α-(1-methyl-L-prolyl)oxy-3-oxo-androsta-1,4-diene-17β-carbothioic acid S-fluoromethyl ester]", "values": [{"measurement": "EC50", "result": "< 1", "unit": "nM"}]}
{"smiles": "CC1CC2C3CC(F)C4=CC(=O)C=CC4(C)C3(F)C(O)CC2(C)C1(OC(=O)C1(C)OCCO1)C(=O)SCF", "note": "(stereo not drawn) [Example 11, 6α,9α-Difluoro-11β-hydroxy-16α-methyl-17α-(2-methyl-1,3-dioxolan-2-ylcarbonyl)oxy-3-oxo-androsta-1,4-diene-17β-carbothioic acid S-fluoromethyl ester]", "values": [{"measurement": "EC50", "result": "< 1", "unit": "nM"}]}
{"smiles": "CC1CC2C3CC(F)C4=CC(=O)C=CC4(C)C3(F)C(O)CC2(C)C1(OC(=O)C1(C)SCCS1)C(=O)SCF", "note": "(stereo not drawn) [Example 12, 6α,9α-Difluoro-11β-hydroxy-16α-methyl-17α-(2-methyl-1,3-dithiolan-2-ylcarbonyl)oxy-3-oxo-androsta-1,4-diene-17β-carbothioic acid S-fluoromethyl ester]", "values": [{"measurement": "EC50", "result": "< 1", "unit": "nM"}]}
{"smiles": "CC1CC2C3CC(F)C4=CC(=O)C=CC4(C)C3(F)C(O)CC2(C)C1(OC(=O)C1OCCO1)C(=O)SCF", "note": "(stereo not drawn) [Example 9, 6α,9α-Difluoro-17α-(1,3-dioxolan-2-ylcarbonyl)oxy-11β-hydroxy-16α-methyl-3-oxo-androsta-1,4-diene-17β-carbothioic acid S-fluoromethyl ester]", "values": [{"measurement": "EC50", "result": "< 1", "unit": "nM"}]}
